# Reference: patent US20090209474A1, “NOVEL USES FOR DRUGS TARGETING GLUTAMINE SYNTHETASE” (NEWTHERA, priority 2005, published 2009)
# Sequences of proteins named here, by UniProt entry; tags and fusion partners are left off. Residues count along the entry.
# UniProt P15105, 2-373 limits assumed: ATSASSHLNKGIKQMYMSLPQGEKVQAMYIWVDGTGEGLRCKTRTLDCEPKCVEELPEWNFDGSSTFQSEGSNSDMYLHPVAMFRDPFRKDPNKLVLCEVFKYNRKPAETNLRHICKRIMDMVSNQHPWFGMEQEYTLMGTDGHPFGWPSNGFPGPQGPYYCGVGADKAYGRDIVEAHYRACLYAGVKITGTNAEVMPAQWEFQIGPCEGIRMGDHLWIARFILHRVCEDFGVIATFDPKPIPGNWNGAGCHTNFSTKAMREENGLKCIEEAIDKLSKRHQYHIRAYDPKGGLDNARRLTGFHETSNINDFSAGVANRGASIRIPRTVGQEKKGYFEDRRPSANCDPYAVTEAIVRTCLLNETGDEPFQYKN
# UniProt P09606, 2-373 limits assumed: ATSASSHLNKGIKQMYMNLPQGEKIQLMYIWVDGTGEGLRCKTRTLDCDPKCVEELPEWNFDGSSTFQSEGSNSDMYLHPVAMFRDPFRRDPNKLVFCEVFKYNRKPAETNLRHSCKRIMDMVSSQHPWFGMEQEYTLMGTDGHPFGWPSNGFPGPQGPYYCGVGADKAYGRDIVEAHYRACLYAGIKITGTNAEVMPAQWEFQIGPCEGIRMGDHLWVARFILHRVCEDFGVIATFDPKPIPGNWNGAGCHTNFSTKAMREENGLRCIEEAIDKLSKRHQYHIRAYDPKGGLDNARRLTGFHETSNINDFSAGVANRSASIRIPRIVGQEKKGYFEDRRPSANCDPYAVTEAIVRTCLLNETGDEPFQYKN
# Where two headings read alike, the source gives them in different places.
# Key:
# GS [1] = conditions: rat, in vivo
# brain GS [2] = biological target: T1, brain GS (Mus musculus, UniProt P15105); conditions: 24 h after single i.p.
# rat brain GS = rat brain GS (Rattus norvegicus, UniProt P09606); conditions: APS 1.5%
# brain GS [3] = biological target: T1, brain GS; conditions: i.p. 7 days
# purified sheep brain GS = assay: Purified sheep brain GS activity (Meister's method, gamma-glutamylhydroxamate formation); format: biochemical
# [4] = test system: glucocorticoid receptor (GR); assay: Brain glucocorticoid receptor expression by ELISA in corticosterone-administered rats; format: in vivo, Wistar rats
# GS [5] = biological target: T2, GS (Rattus norvegicus, UniProt P09606); conditions: for lung GS activity: versus PCB
# GS [6] = biological target: T2, GS; conditions: GF 1 mg/kg, tianeptine 10 mg/kg, methyprednisolone 5 mg/kg i.p.
# [7] = GF 3 mg/kg, tianeptine 15 mg/kg
# [8] = 21 days, versus PCB and Control
smiles,measurement,setting,value
"CN1c2ccccc2C(NCCCCCCC(=O)O)c2ccc(Cl)cc2S1(=O)=O (stereo not shown) [tianeptine, 7-[(3-chloro-6,11-dihydro-6-methyl-dibenzo[c,f][1,2]thiazepin-11-yl)amino] heptanoic acid S,S-dioxide]",brain GS expression,GS [1],higher
same,dose relation of effects on GS activity and GS expression,brain GS [2],dose-dependent
same,dose with the highest GS activity,brain GS [2],1.25 mg/kg
same,whole brain GS activity,brain GS [2]; 0.078-20 mg/kg,increase GS activity
same,concentrations increasing GS activity in presence of APS,rat brain GS,10^−8 to 10^−10 M
same,brain GS expression,brain GS [3]; [7],increased also GS expression
same,whole brain GS activity,brain GS [3]; [7],increase GS activity
same,dose relation of effects on GS activity and GS expression,brain GS [3],dose-dependent
same,whole brain GS activity at higher doses,"brain GS [3]; doses above GF 3 mg/kg, tianeptine 15 mg/kg",decreased GS activity
same,type of competition,purified sheep brain GS,competitive with L-glutamine
same,inhibitory effect of tianeptine on GS activity with increasing L-glutamate,"purified sheep brain GS; 5 μM tianeptine, L-glutamate 0.0016-10 mM, 12.5 mM L-glutamine",decreased as the concentration of L-glutamate increased
same,effect on GS activity at “high” concentrations,purified sheep brain GS; in absence of 2βME,inhibit GS activity at “high” concentrations
same,“low concentrations” that activate GS activity,purified sheep brain GS; in absence of 2βME,10^−13 to 10^−16 M
same,effect on GS subunit (monomer) activity,purified sheep brain GS; in presence of 2β-ME (DTT for tianeptine),inhibit GS activity at “high” concentrations
same,brain GR expression,"[4]; GF 0.1 and 3 mg/kg, MS 0.5, 15 and 45 mg/kg, tianeptine 0.5 mg/kg, versus PCB",higher
same,dose relation of the increase in GR expression,"[4]; rat, in vivo",inversely proportional to the dose
same,lung GS activity,"GS [5]; 21 days, most rats",decrease in lung GS activity
same,brain GS activity,GS [5]; [8],dose-dependent decrease
same,liver GS activity,GS [5]; [8],clear decrease
same,lung GS activity,GS [5]; [7],remained in the same range
same,liver GS activity,GS [5]; tianeptine 0.5 mg/kg,remained in the same range
same,brain GS activity,"GS [5]; tianeptine 0.5 mg/kg, versus PCB and Control",remained in the same range
same,GS activity in the cortex,GS [6],Trend to an Decrease
same,GS activity in the hippocampus,GS [6],Increase of GS Activity
same,GS activity in the thalamus/hypothalamus,GS [6]; 1 h and 24 h after last administration,Decreased GS Activity
